From article PMC10447549
Read-outs that look alike come from different tables or passages of the source. These are yes or no findings as the source states them, for the method shown. In cells and extracts the contact can be indirect. Some binding calls cover weakened binding; strength is not graded here. Each block holds one molecule with its values, some of them ahead of it.

Protein sequences, listed by entry. Tags and fused reporters are not part of them. Lines headed by an entry give the natural chain unless they say otherwise; changes in a name come on top. Residues count along the entry.
UniProt Q16254: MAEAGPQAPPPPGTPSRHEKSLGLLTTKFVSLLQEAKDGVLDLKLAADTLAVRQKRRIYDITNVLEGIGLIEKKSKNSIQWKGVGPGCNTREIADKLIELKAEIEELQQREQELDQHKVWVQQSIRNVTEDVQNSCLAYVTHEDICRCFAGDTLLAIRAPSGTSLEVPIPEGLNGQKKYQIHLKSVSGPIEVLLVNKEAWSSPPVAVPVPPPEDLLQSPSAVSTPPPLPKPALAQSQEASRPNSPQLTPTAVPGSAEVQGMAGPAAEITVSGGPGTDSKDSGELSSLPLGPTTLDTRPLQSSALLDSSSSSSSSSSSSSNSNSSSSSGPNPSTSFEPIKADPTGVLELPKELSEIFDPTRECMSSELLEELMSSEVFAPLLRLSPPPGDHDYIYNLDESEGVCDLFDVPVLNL
GST-E2f4 N-terminal fragment (amino acids 1-105) (human (ORF amplified from HCT116 mRNA)): residues 1-105 of Q16254
UniProt Q8R0K9: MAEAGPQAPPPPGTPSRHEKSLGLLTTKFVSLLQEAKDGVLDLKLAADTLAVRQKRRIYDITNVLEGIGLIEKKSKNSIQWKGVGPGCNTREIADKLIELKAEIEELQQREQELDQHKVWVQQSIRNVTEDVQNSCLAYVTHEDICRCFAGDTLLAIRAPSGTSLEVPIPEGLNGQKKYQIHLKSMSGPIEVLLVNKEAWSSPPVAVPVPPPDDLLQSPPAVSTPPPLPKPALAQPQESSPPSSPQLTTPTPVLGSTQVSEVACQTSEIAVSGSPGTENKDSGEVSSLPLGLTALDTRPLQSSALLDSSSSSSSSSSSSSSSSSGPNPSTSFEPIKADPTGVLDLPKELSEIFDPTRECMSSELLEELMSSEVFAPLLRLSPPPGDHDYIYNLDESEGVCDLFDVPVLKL
UniProt P17918: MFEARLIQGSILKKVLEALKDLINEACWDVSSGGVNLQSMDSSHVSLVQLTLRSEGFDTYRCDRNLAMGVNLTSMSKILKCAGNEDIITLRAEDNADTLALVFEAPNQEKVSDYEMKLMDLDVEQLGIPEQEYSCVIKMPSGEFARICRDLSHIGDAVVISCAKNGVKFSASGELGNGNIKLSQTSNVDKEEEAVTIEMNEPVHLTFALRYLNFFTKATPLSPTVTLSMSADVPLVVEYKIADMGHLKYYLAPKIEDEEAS
UniProt P46063: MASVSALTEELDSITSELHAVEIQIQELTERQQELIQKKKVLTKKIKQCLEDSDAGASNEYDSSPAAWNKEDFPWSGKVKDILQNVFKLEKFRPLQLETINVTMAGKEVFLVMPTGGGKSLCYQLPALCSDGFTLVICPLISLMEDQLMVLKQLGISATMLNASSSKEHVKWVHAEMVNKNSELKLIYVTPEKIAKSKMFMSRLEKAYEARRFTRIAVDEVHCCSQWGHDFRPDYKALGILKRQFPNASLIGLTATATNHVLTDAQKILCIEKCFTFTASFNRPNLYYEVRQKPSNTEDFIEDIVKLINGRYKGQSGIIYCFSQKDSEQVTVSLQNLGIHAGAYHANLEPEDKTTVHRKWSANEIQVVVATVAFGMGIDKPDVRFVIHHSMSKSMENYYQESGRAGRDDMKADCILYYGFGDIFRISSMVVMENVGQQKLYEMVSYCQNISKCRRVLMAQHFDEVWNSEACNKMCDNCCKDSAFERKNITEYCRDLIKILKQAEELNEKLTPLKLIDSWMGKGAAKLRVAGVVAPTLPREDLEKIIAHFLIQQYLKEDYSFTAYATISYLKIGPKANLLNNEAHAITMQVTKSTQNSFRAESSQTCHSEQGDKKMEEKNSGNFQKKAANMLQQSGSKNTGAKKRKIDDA

Columns and labels:
[1] = molecular target: GST-E2f4 N-terminal fragment (amino acids 1-105) (human (ORF amplified from HCT116 mRNA)) (UniProt Q16254); experiment: pull-down; GST-E2f4 fusion proteins on glutathione agarose beads, washed with TNT-300 buffer, incubated 4 h with U2OS or shTrim33 U2OS whole cell lysates; immunoblot; only the target purified
[2] = molecular target: T1, Trim33 (endogenous, U2OS) (human (endogenous in U2OS)) (UniProt Q9UPN9); experiment: co-IP; Trim33 immunoprecipitates from lysates of U2OS cells, endogenous proteins
T1 sequence: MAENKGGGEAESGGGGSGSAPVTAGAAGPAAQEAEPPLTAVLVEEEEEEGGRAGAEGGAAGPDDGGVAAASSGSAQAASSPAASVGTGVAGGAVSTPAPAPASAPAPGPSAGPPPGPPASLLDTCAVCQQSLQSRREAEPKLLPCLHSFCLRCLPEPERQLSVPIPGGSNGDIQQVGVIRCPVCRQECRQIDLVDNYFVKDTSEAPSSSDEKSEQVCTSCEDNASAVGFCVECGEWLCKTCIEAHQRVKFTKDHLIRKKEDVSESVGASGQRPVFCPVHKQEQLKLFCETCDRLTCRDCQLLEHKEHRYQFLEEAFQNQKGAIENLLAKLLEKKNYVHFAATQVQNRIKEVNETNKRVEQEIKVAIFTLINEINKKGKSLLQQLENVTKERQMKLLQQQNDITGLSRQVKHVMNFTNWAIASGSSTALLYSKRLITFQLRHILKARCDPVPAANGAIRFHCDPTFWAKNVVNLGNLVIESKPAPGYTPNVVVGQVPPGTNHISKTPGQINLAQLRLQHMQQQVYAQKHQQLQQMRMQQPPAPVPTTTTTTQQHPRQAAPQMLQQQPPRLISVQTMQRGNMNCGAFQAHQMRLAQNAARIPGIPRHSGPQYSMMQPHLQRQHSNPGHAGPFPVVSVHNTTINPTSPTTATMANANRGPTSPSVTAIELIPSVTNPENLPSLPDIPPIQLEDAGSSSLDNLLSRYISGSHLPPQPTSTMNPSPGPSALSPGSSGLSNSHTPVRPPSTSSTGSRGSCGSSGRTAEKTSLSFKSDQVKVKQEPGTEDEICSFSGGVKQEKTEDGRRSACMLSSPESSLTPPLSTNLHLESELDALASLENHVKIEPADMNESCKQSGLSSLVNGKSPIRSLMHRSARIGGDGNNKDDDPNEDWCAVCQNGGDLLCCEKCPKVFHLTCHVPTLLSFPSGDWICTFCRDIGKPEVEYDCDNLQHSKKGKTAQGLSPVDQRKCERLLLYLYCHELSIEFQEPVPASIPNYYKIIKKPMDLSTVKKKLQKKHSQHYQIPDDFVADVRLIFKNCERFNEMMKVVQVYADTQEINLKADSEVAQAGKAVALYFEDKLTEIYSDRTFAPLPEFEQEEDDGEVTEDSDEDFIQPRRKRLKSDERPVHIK

[3] = molecular target: T2, Recql DNA helicase (endogenous, mouse) (mouse (endogenous in p19/Nras)) (UniProt Q9Z129); experiment: co-IP; IP of HA-tagged or endogenous Recql from formaldehyde-crosslinked (0.2%) p19/Nras Trim33-WT and Trim33-KO cells, sonicated in TNT buffer with 300 mM NaCl and 0.1% SDS; with control or E2f4 siRNA, E2f4 variants, untreated or HU 10 or 120 min
T2 sequence: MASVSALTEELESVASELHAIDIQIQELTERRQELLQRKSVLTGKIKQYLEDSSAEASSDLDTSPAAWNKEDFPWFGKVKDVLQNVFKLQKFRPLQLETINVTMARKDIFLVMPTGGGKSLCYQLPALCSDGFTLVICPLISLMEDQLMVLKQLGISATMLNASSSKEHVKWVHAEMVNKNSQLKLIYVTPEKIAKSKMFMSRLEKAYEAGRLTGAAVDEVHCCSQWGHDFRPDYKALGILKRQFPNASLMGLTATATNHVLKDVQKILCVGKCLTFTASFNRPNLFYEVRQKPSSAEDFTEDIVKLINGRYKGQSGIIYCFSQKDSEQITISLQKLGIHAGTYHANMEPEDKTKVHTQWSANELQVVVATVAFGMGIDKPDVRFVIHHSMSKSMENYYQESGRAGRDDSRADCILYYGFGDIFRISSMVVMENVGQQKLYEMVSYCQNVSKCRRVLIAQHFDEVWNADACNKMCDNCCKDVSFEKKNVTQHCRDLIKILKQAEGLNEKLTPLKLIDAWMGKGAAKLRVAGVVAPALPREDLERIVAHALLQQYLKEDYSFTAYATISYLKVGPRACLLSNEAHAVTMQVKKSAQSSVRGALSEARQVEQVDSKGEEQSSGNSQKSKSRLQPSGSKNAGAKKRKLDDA

[4] = molecular target: HA-tagged E2f4 (stably expressed in p19/Nras cells) (human (ORF amplified from HCT116 mRNA)) (UniProt Q16254); experiment: co-IP; IP experiment with E2f4 variants and Recql (Supplementary Fig. 3e); cells and bait not told
[5] = molecular target: HA-tagged E2f4 (stably expressed in p19/Nras cells) (human (ORF amplified from HCT116 mRNA)) (UniProt Q16254); experiment: proximity ligation; Duolink PLA on formaldehyde-fixed p19/Nras Trim33-WT and Trim33-KO cells with antibody pairs as indicated (Trim33 and E2f4; Recql and HA-tag; Recql and RNAPII or Mcm2); untreated or HU-treated
[6] = molecular target: transcription factor E2f4 (endogenous, mouse) (mouse (endogenous in p19/Nras)) (UniProt Q8R0K9); experiment: co-IP; IP of endogenous E2f4 with E2f4 antibodies from TNT-150 lysates (25 mM Tris-HCl pH 8.0, 1% Triton X-100, 150 mM NaCl) of p19/Nras Trim33-WT or Trim33-KO cells; cells treated with MG132 or DMSO, or HU (2 h); lysates with or without benzonase; protein G agarose, 4 °C
[7] = molecular target: GST-E2f4 N-terminal fragment (amino acids 1-105) (human (ORF amplified from HCT116 mRNA)) (UniProt Q16254); experiment: pull-down; GST-E2f4 fusion proteins on glutathione agarose beads, washed with TNT-300 buffer, incubated 4 h with U2OS or shTrim33 U2OS whole cell lysates; immunoblot; only the target purified; remark: listed apart in the source
[8] = molecular target: transcription factor E2f4 (endogenous, mouse) (mouse (endogenous in p19/Nras)) (UniProt Q8R0K9); experiment: proximity ligation; Duolink PLA on formaldehyde-fixed p19/Nras Trim33-WT and Trim33-KO cells with antibody pairs as indicated (Trim33 and E2f4; Recql and HA-tag; Recql and RNAPII or Mcm2); untreated or HU-treated

Molecule: E2f4 (endogenous, U2OS) (from UniProt Q16254 1-413)
binding [2]: binds

Molecule: PCNA (endogenous, mouse) (from UniProt P17918 1-261)
binding [3]: binds

B3: Trim33 ubiquitin ligase (endogenous, mouse) (protein, UniProt Q99PP7 1-1142)
chain: MAENKGGGEAESGGGGSGSAPVTAGAAGPTAQEAEPPLAAVLVEEEEEEGGRAGAEGGAAGPDDGGVAAASSSSAPAASVPAASVGSAVPGGAASTPAPAAAPAPAPAPAPAPAPAPAPAPAPGSSSGPPLGPPASLLDTCAVCQQSLQSRREAEPKLLPCLHSFCLRCLPEPERQLSVPIPGGSNGDVQQVGVIRCPVCRQECRQIDLVDNYFVKDTSEAPSSSDEKSEQVCTSCEDNASAVGFCVECGEWLCKTCIEAHQRVKFTKDHLIRKKEDVSESVGTSGQRPVFCPVHKQEQLKLFCETCDRLTCRDCQLLEHKEHRYQFLEEAFQNQKGAIENLLAKLLEKKNYVHFAATQVQNRIKEVNETNKRVEQEIKVAIFTLINEINKKGKSLLQQLENVTKERQMKLLQQQNDITGLSRQVKHVMNFTNWAIASGSSTALLYSKRLITFQLRHILKARCDPVPAANGAIRFHCDPTFWAKNVVNLGNLVIESKPAPGYTPNVVVGQVPPGTNHISKTPGQINLAQLRLQHMQQQVYAQKHQQLQQMRLQQPPAPIPTTTATTQQHPRQAAPQMLQQQPPRLISVQTMQRGNMNCGAFQAHQMRLAQNAARIPGIPRHSAPQYSMMQPHLQRQHSNPGHAGPFPVVSAHNPINPTSPTTATMANANRGPTSPSVTAIELIPSVTNPENLPSLPDIPPIQLEDAGSSSLDNLLSRYISGSHLPPQPTSTMNPSPGPSALSPGSSGLSNSHTPVRPPSTSSTGSRGSCGSSGRTAEKSAHSFKSDQVKVKQEPGTEEEICSFSGAVKQEKTEDGRRSACMLSSPESSLTPPLSTNLHLESELDTLTGLENHVKTEPTDISESCKQSGLSNLVNGKSPIRNLMHRSARIGGDGNSKDDDPNEDWCAVCQNGGDLLCCEKCPKVFHLTCHVPTLLSFPSGDWICTFCRDIGKPEVEYDCDNMQHSKKGKTAQGLSPVDQRKCERLLLYLYCHELSIEFQEPVPVSIPNYYKIIKKPMDLSTVKKKLQKKHSQHYQIPDDFVADVRLIFKNCERFNEMMKVVQVYADTQEINLKGDSEVAKAGKAVALYFEDKLSEIYSDRTFTPLPEFEQDEDDGEVTEDSDEDFIQPRRKRLKSDERPVHIK
binding [8]: binds
binding [6]: binds

Further lines, results first:

binding [1]: binds weakly
Molecule: Recql (endogenous, U2OS) (from UniProt P46063 1-649)

binding [4]: binds
binding [5]: binds
binding [6]: binds
B1: Recql DNA helicase (endogenous, mouse) (protein, UniProt Q9Z129 1-648)
chain: MASVSALTEELESVASELHAIDIQIQELTERRQELLQRKSVLTGKIKQYLEDSSAEASSDLDTSPAAWNKEDFPWFGKVKDVLQNVFKLQKFRPLQLETINVTMARKDIFLVMPTGGGKSLCYQLPALCSDGFTLVICPLISLMEDQLMVLKQLGISATMLNASSSKEHVKWVHAEMVNKNSQLKLIYVTPEKIAKSKMFMSRLEKAYEAGRLTGAAVDEVHCCSQWGHDFRPDYKALGILKRQFPNASLMGLTATATNHVLKDVQKILCVGKCLTFTASFNRPNLFYEVRQKPSSAEDFTEDIVKLINGRYKGQSGIIYCFSQKDSEQITISLQKLGIHAGTYHANMEPEDKTKVHTQWSANELQVVVATVAFGMGIDKPDVRFVIHHSMSKSMENYYQESGRAGRDDSRADCILYYGFGDIFRISSMVVMENVGQQKLYEMVSYCQNVSKCRRVLIAQHFDEVWNADACNKMCDNCCKDVSFEKKNVTQHCRDLIKILKQAEGLNEKLTPLKLIDAWMGKGAAKLRVAGVVAPALPREDLERIVAHALLQQYLKEDYSFTAYATISYLKVGPRACLLSNEAHAVTMQVKKSAQSSVRGALSEARQVEQVDSKGEEQSSGNSQKSKSRLQPSGSKNAGAKKRKLDDA

binding [7]: binds
B2: Trim33 (endogenous, U2OS) (protein, UniProt Q9UPN9 1-1127)
chain: MAENKGGGEAESGGGGSGSAPVTAGAAGPAAQEAEPPLTAVLVEEEEEEGGRAGAEGGAAGPDDGGVAAASSGSAQAASSPAASVGTGVAGGAVSTPAPAPASAPAPGPSAGPPPGPPASLLDTCAVCQQSLQSRREAEPKLLPCLHSFCLRCLPEPERQLSVPIPGGSNGDIQQVGVIRCPVCRQECRQIDLVDNYFVKDTSEAPSSSDEKSEQVCTSCEDNASAVGFCVECGEWLCKTCIEAHQRVKFTKDHLIRKKEDVSESVGASGQRPVFCPVHKQEQLKLFCETCDRLTCRDCQLLEHKEHRYQFLEEAFQNQKGAIENLLAKLLEKKNYVHFAATQVQNRIKEVNETNKRVEQEIKVAIFTLINEINKKGKSLLQQLENVTKERQMKLLQQQNDITGLSRQVKHVMNFTNWAIASGSSTALLYSKRLITFQLRHILKARCDPVPAANGAIRFHCDPTFWAKNVVNLGNLVIESKPAPGYTPNVVVGQVPPGTNHISKTPGQINLAQLRLQHMQQQVYAQKHQQLQQMRMQQPPAPVPTTTTTTQQHPRQAAPQMLQQQPPRLISVQTMQRGNMNCGAFQAHQMRLAQNAARIPGIPRHSGPQYSMMQPHLQRQHSNPGHAGPFPVVSVHNTTINPTSPTTATMANANRGPTSPSVTAIELIPSVTNPENLPSLPDIPPIQLEDAGSSSLDNLLSRYISGSHLPPQPTSTMNPSPGPSALSPGSSGLSNSHTPVRPPSTSSTGSRGSCGSSGRTAEKTSLSFKSDQVKVKQEPGTEDEICSFSGGVKQEKTEDGRRSACMLSSPESSLTPPLSTNLHLESELDALASLENHVKIEPADMNESCKQSGLSSLVNGKSPIRSLMHRSARIGGDGNNKDDDPNEDWCAVCQNGGDLLCCEKCPKVFHLTCHVPTLLSFPSGDWICTFCRDIGKPEVEYDCDNLQHSKKGKTAQGLSPVDQRKCERLLLYLYCHELSIEFQEPVPASIPNYYKIIKKPMDLSTVKKKLQKKHSQHYQIPDDFVADVRLIFKNCERFNEMMKVVQVYADTQEINLKADSEVAQAGKAVALYFEDKLTEIYSDRTFAPLPEFEQEEDDGEVTEDSDEDFIQPRRKRLKSDERPVHIK
